Experimental data taken from PubChem BioAssay AID248 (DTP/NCI, 2004).
The list does not hold the whole screen: it gathers tests that were run many times, whatever their T/C, doses with no T/C, and many T/C values between a quarter and a half above the control. Further doses and runs are listed elsewhere. T/C is the treated group as % of the vehicle group. Some entries give survivors of the animals treated and no T/C: the source holds a T/C of zero for them, seemingly a mark for toxic or unscored doses. Some survivor counts are full or nearly so, which does not show that the dose was tolerated: the source hardly ever lists a survival T/C far under the control, and the zero likely stands for such cases as well. Counts of survivors are from the toxicity check (mostly the fifth day) where no day follows; animals may have died later. Schedule codes are those of the source, taken here to give the interval after Q, in days (D) or hours (H), and the number of doses after X. Some schedules carry Z or #; the key to these is not given. Some molecules as drawn cover several salts, stereoisomers or complexes of the source; a dose is that of the sample tested. Where survival is the endpoint, the PubChem record calls one and a half times the control and up active, and a quarter to a half above the control has no call in these data; cut-offs in other NCI protocols can differ. Some T/C values carry the count of animals alive at the toxicity check (mostly the fifth day); where none is given, no animal had died by that day.

Test system: L1210 leukemia ip in BDF1 mice, survival T/C
Test: NCI In Vivo Anticancer Drug Screen. Data for tumor model L1210 Leukemia (intraperitoneal) in B6D2F1 (BDF1) mice
Conditions: T/C endpoint: mean survival time, higher T/C = longer survival
[1] = dose: 200.0 mg/kg/injection, schedule: Q01DX001 (ip), vehicle: saline
[2] = dose: 100.0 mg/kg/injection, schedule: Q01DX009 (ip), vehicle: saline
[3] = dose: 400.0 mg/kg/injection, schedule: Q01DX001 (ip), vehicle: saline
[4] = dose: 400.0 mg/kg/injection, schedule: Q01DX009 (ip), vehicle: saline with Tween-80
[5] = dose: 150.0 mg/kg/injection, schedule: Q01DX001 (ip), vehicle: saline
[6] = dose: 300.0 mg/kg/injection, schedule: Q01DX001 (ip), vehicle: saline
[7] = dose: 400.0 mg/kg/injection, schedule: Q04DX002 (ip), vehicle: saline with Tween-80
[8] = dose: 100.0 mg/kg/injection, schedule: Q04DX002 (ip), vehicle: saline with Tween-80
[9] = dose: 100.0 mg/kg/injection, schedule: Q04DX003 (ip), vehicle: Klucel (hydroxypropylcellulose) (HPC)

## COc1ccc2c(OC)c3ccoc3nc2c1OC
dose: 100.0 mg/kg/injection, schedule: Q01DX Z (ip), vehicle: carboxymethylcellulose (CMC)
  survivor count: 6 of 6
dose: 200.0 mg/kg/injection, schedule: Q01DX Z (ip), vehicle: carboxymethylcellulose (CMC)
  survivor count: 6 of 6

## Oc1c(Br)cc(Br)cc1/C=N/c1nc(-c2ccccc2)cs1.Oc1c(Br)cc(Br)cc1/C=N/c1nc(-c2ccccc2)cs1.[Co]
[1]
  survivor count: 3 of 3

## NC(=O)c1cn(C2OC(CO)C(O)C2O)c2nc(Cl)nc(N)c12 (configuration not stated)
dose: 50.0 mg/kg/injection, schedule: Q01DX009 (ip), vehicle: saline
  survivor count: 4 of 6
dose: 50.0 mg/kg/injection, schedule: Q04DX003 (ip), vehicle: saline
  T/C: 148 % of control
[2]
  survivor count: 6 of 6
dose: 200.0 mg/kg/injection, schedule: Q01DX009 (ip), vehicle: saline
  survivor count: 0 of 6
dose: 200.0 mg/kg/injection, schedule: Q04DX003 (ip), vehicle: saline
  T/C: 148 % of control [5 of 6 alive]
dose: 300.0 mg/kg/injection, schedule: Q01DX009 (ip), vehicle: saline
  survivor count: 0 of 6
dose: 400.0 mg/kg/injection, schedule: Q04DX003 (ip), vehicle: saline
  survivor count: 1 of 6

## COc1ccccc1CC(C)N (configuration not stated)
dose: 80.0 mg/kg/injection, schedule: Q01DX001 (ip), vehicle: saline
  survivor count: 2 of 4
[1]
  survivor count: 0 of 4
[3]
  survivor count: 0 of 4

## Nc1ccc(Cl)cc1C(=O)c1ccccc1
dose: 200.0 mg/kg/injection, schedule: Q04DX002 (ip), vehicle: DMSO
  survivor count: 2 of 3
dose: 400.0 mg/kg/injection, schedule: Q04DX002 (ip), vehicle: DMSO
  survivor count: 1 of 3

## COc1ccc(OC)c(NC(=S)NC(=O)c2ccc(Cl)cc2Cl)c1
[4]
  survivor count: 6 of 6

## COc1ccc(/C=C/C(=O)c2cc(C(=O)O)c(OC)cc2OC)cc1OC
[4]
  survivor count: 3 of 6

## COc1ccccc1C(CC(=O)c1ccccc1)Sc1ccccc1N (configuration not stated)
dose: 200.0 mg/kg/injection, schedule: Q01DX005 (ip), vehicle: Klucel (hydroxypropylcellulose) (HPC)
  survivor count: 3 of 3

## c1ccc2c(Nc3ccc(C4=NCCN4)cc3)nnc(Nc3ccc(C4=NCCN4)cc3)c2c1
dose: 125.0 mg/kg/injection, schedule: Q01DX Z (ip), vehicle: carboxymethylcellulose (CMC)
  T/C: 129 % of control
dose: 250.0 mg/kg/injection, schedule: Q01DX Z (oral), vehicle: water
  survivor count: 3 of 6

## CN(C)C=Nc1ccc(Cl)cc1
dose: 100.0 mg/kg/injection, schedule: Q01DX001 (ip), vehicle: saline
  survivor count: 0 of 4
dose: 200.0 mg/kg/injection, schedule: Q01DX001 (ip), vehicle: other
  survivor count: 0 of 6
[1]
  survivor count: 0 of 4
dose: 400.0 mg/kg/injection, schedule: Q01DX001 (ip), vehicle: other
  survivor count: 0 of 6
[3]
  survivor count: 0 of 4

## CCCCNCCOC(=O)c1ccc(N)cc1
[5]
  survivor count: 0 of 6
[6]
  survivor count: 0 of 6

## O=[N+]([O-])c1ccc2c(ccc3sc4ccccc4[n+]32)c1
dose: 75.0 mg/kg/injection, schedule: Q01DX001 (ip), vehicle: other
  survivor count: 3 of 6
dose: 150.0 mg/kg/injection, schedule: Q01DX001 (ip), vehicle: other
  survivor count: 0 of 6
dose: 300.0 mg/kg/injection, schedule: Q01DX001 (ip), vehicle: other
  survivor count: 0 of 6

## COC(OC)(/C(Cl)=C(\Cl)c1ccccc1)c1ccccc1
[7]
  survivor count: 3 of 3

## Cc1ccc(C)c(CNC(=O)Nc2ccccc2Cl)c1
dose: 400.0 mg/kg/injection, schedule: Q01DX009 (ip), vehicle: Klucel (hydroxypropylcellulose) (HPC)
  survivor count: 5 of 6

## [Co+3].[NH-]CC(=O)O.[NH-]CC(=O)O.[NH-]CC(=O)O
[8]
  survivor count: 3 of 3
dose: 800.0 mg/kg/injection, schedule: Q04DX002 (ip), vehicle: saline with Tween-80
  survivor count: 2 of 3

## O=C(NO)Oc1cccc2ccccc12
[8]
  survivor count: 3 of 3
dose: 200.0 mg/kg/injection, schedule: Q04DX002 (ip), vehicle: saline with Tween-80
  survivor count: 3 of 3
[7]
  survivor count: 2 of 3

## CCCCNc1nc2ccccc2[nH]1
dose: 75.0 mg/kg/injection, schedule: Q01DX001 (ip), vehicle: saline
  survivor count: 0 of 6
[5]
  survivor count: 0 of 6
[6]
  survivor count: 1 of 6

## CC1(C)CC(=O)CC(C)(C#N)C1 (configuration not stated)
dose: 25.0 mg/kg/injection, schedule: Q01DX009 (ip), vehicle: Klucel (hydroxypropylcellulose) (HPC)
  survivor count: 1 of 6
dose: 50.0 mg/kg/injection, schedule: Q04DX003 (ip), vehicle: Klucel (hydroxypropylcellulose) (HPC)
  survivor count: 0 of 6
[9]
  survivor count: 0 of 6
dose: 200.0 mg/kg/injection, schedule: Q04DX003 (ip), vehicle: Klucel (hydroxypropylcellulose) (HPC)
  survivor count: 0 of 6
dose: 400.0 mg/kg/injection, schedule: Q04DX003 (ip), vehicle: Klucel (hydroxypropylcellulose) (HPC)
  survivor count: 0 of 6

## CCC(CC)(COS(=O)(=O)c1ccc(C)cc1)COS(=O)(=O)c1ccc(C)cc1
[9]
  T/C: 128 % of control

## CN(C)N=Nc1ccc(Cl)cc1
dose: 400.0 mg/kg/injection, schedule: Q01DX001 (ip), vehicle: saline with Tween-80
  survivor count: 2 of 10

## O=C/C=C/c1cccnc1
dose: 100.0 mg/kg/injection, schedule: Q01DX009 (ip), vehicle: saline with Tween-80
  survivor count: 6 of 6
[4]
  survivor count: 0 of 6

## CCCCn1cnc2c(=S)nc(N)[nH]c21
dose: 7.5 mg/kg/injection, schedule: Q01DX Z (ip), vehicle: methylcellulose (MC)
  T/C: 137 % of control
dose: 11.0 mg/kg/injection, schedule: Q01DX Z (ip), vehicle: methylcellulose (MC)
  T/C: 132 % of control
dose: 29.0 mg/kg/injection, schedule: Q04DX003 (ip), vehicle: saline with Tween-80
  T/C: 126 % of control
dose: 44.0 mg/kg/injection, schedule: Q04DX003 (ip), vehicle: saline with Tween-80
  T/C: 147 % of control [5 of 6 alive]
dose: 66.0 mg/kg/injection, schedule: Q04DX003 (ip), vehicle: saline with Tween-80
  T/C: 144 % of control
dose: 100.0 mg/kg/injection, schedule: Q04DX003 (ip), vehicle: saline with Tween-80
  T/C: 146 % of control
dose: 150.0 mg/kg/injection, schedule: Q04DX003 (ip), vehicle: saline with Tween-80
  T/C: 142 % of control

## Cc1ccc([I+]c2ccc(C)c(C)c2C)c(C)c1C
dose: 14.0 mg/kg/injection, schedule: Q01DX001 (ip), vehicle: acetone
  survivor count: 1 of 6
dose: 35.0 mg/kg/injection, schedule: Q01DX001 (ip), vehicle: acetone
  survivor count: 2 of 6

## CCC(C)C(NC(=O)OCc1ccccc1)C(=O)ON1C(=O)CCC1=O (configuration not stated)
[4]
  survivor count: 4 of 6

## C/C=C/C(=O)Nc1cccc(C)c1C
dose: 200.0 mg/kg/injection, schedule: Q01DX009 (ip), vehicle: Klucel (hydroxypropylcellulose) (HPC)
  survivor count: 6 of 6

## CCOC(=O)N1C=Cn2c(cnc2C)C1O (configuration not stated)
[2]
  survivor count: 5 of 6
dose: 400.0 mg/kg/injection, schedule: Q01DX009 (ip), vehicle: saline
  survivor count: 3 of 6
